# Measurements taken from patent US6855715B1, “Serine protease inhibitors” (Eli Lilly and Company, priority 1999, dated 2005).
# At least one compound was matched to its structure with a doubt left.
# System: plasma
# Assay: Partial Thromboplastin Time (Prothrombin) Test Protocol
# Format: biochemical
# Conditions: concentration of the solution added; final concentration in the assay mixture is one third of this value; Example 66 and comparison compounds: average of 3 tests
# Description: The ability of a test compound to elongate Partial Thromboplastin Time (Prothrombin Time) may be evaluated in the following test protocols.
# Partial Thromboplastin Time (Prothrombin) Test Protocol Venous blood was collected into 3.2% (0.109 m) trisodium citrate vacutainer tubes at 1 volume of anticoagulant to nine volumes of blood. The blood cells were separated by centrifugation at 700 g for ten minutes to yield plasma, which was frozen at […] until required.
# To perform the test, 100 μl of plasma was pipetted into in a glass test tube, 1 μl of test compound in DMSO was added, and allowed to warm to 37° over two minutes. 100 μl of warm (37°) Manchester (tissue thromboplasin) reagent (Helena Biosciences, UK) was added, allowed to equilibrate for two minutes. 100 μl of warm (37°) 25 mM calcium chloride solution was added to initiate clotting. The test tube was tilted three times through a 90° angle every five seconds to mix the reagents and the time to clot formation recorded. Data from a series of observations and test compound concentrations are analysed by a SAS statistical analysis program and a CT2 (Concentration required to double clotting time) for each compound is generated.
compound,measurement,value
"CS(=O)(=O)c1cc(F)ccc1N1CCN(C(=O)[C@H](NC(=O)c2ccc(Cl)c(N)c2)c2ccccc2)CC1 [Example 35, 1-(3-Amino-4-chlorobenzoyl-D-phenylglycinyl)-4-(4-fluoro-2-methylsulphonylphenyl)piperazine]",Conc. necessary to double the prothrombin time,8.8 µM
